Measured data: PubChem BioAssay AID720505 (Drosophila RNAi Screening Center, 2013)
Aim: 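Genes needed for store-operated calcium entry in fly cells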 (primary screen). Cells: Drosophila S2R+ cells. Knock-down reagent: long dsRNA against Drosophila genes. Challenge: thapsigargin (2 µM) in calcium-free buffer to empty internal stores, then 2 mM calcium added back. Measurement: 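Stores emptied by 2 µM thapsigargin without calcium, then 2 mM calcium re-added; fluo-4 fluorescence followed by FLIPR in 384-well plates, per-well averaged endpoint, raw; two screen passes, some wells retested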. Reading the numbers: calcium signal and retest calcium signal: higher = more calcium entry after store depletion. Rule for the call: 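About 1500 genes called as lowering calcium entry, by varying amounts, judged against per-plate control wells with STIM1 as positive and Rho1 as negative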. Meaning of the calls: active = called as lowering calcium entry; inactive = not called.
The screen tested about 20,000 reagents; this is an unselected part of those with a known target gene and a result. In the full data, about 2,100 (10%) are marked active. 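Raw plate signals without normalisation; calls rest on control-based scores that were not deposited; replicate 2 separates called from uncalled poorly.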 Unmarked entries are inactive. A plus sign joins genes that one reagent is predicted to hit. Not given: the amount of reagent, the time to read-out.

After knock-down of CG13481 [DRSC10023], the record shows calcium signal, replicate 1 = 86.4; calcium signal, replicate 2 = 128.
swaPsi [DRSC21685] scored calcium signal, replicate 1 = 219; calcium signal, replicate 2 = 87.9.
COX6AL [DRSC21454] gave calcium signal, replicate 1 = 118; calcium signal, replicate 2 = 135.
With knock-down of Synj [DRSC04526] the results were calcium signal, replicate 1 = 99.3; calcium signal, replicate 2 = 119.
didum [DRSC07603] scored calcium signal, replicate 1 = 158; calcium signal, replicate 2 = 114.
Knock-down of CG11475 [DRSC04113] came out at: calcium signal, replicate 1 = 76.4; calcium signal, replicate 2 = 89.1.
CG18599 [DRSC15357] showed calcium signal, replicate 1 = 153; calcium signal, replicate 2 = 122; retest calcium signal, replicate 1 = 11451; retest calcium signal, replicate 2 = 152.
For CG18599 [DRSC22585] the deposit lists calcium signal, replicate 1 = 82.2 (active); calcium signal, replicate 2 = 71.5.
With knock-down of CG18599 [DRSC23121], the screen gave calcium signal, replicate 1 = 128; calcium signal, replicate 2 = 141.
Idgf3 [DRSC03351] gave calcium signal, replicate 1 = 89.5; calcium signal, replicate 2 = 120.
CG14072 [DRSC02375] gave calcium signal, replicate 1 = 140; calcium signal, replicate 2 = 166.

Part of the list above, reduced to “calcium signal, replicate 1”:
swaPsi [DRSC21685]	219
COX6AL [DRSC21454]	118

The results go on:
Depletion of CG10862 [DRSC08170] gave: calcium signal, replicate 1 = 112; calcium signal, replicate 2 = 127.
Against Tim9a [DRSC19753], the values are calcium signal, replicate 1 = 138; calcium signal, replicate 2 = 108.
With knock-down of CG33124 [DRSC00298], the screen gave calcium signal, replicate 1 = 143; calcium signal, replicate 2 = 139.
DJ-1alpha [DRSC07005] gave calcium signal, replicate 1 = 76.9; calcium signal, replicate 2 = 222.
CG17707 [DRSC20650] gave calcium signal, replicate 1 = 182; calcium signal, replicate 2 = 83.9.
Silencing of Ipk1 [DRSC04235] gave: calcium signal, replicate 1 = 161; calcium signal, replicate 2 = 73.7.
Knock-down of Ipk1 [DRSC04236] resulted in: calcium signal, replicate 1 = 172; calcium signal, replicate 2 = 80.5.
For Ipk1 [DRSC04237] the deposit lists calcium signal, replicate 1 = 163; calcium signal, replicate 2 = 81.6.
Depletion of Tektin-C [DRSC09741] resulted in: calcium signal, replicate 1 = 99.7; calcium signal, replicate 2 = 75.8.
Ada1-1 + Ada1-2 [DRSC01220] scored calcium signal, replicate 1 = 266; calcium signal, replicate 2 = 82.7.
With knock-down of Ada1-1 + Ada1-2 [DRSC01222], the screen gave calcium signal, replicate 1 = 80.2 (active); calcium signal, replicate 2 = 242.
Depletion of CG11825 [DRSC06090] came out at: calcium signal, replicate 1 = 101; calcium signal, replicate 2 = 86.5.
CAH1 + Adat1 [DRSC02009] scored calcium signal, replicate 1 = 78.3; calcium signal, replicate 2 = 126.
CG14252 [DRSC14747] gave calcium signal, replicate 1 = 188; calcium signal, replicate 2 = 208.
After knock-down of CG42376 + cin [DRSC18752], the screen gave calcium signal, replicate 1 = 119; calcium signal, replicate 2 = 129.
Jon99Ciii [DRSC16859] scored calcium signal, replicate 1 = 142; calcium signal, replicate 2 = 139.
Silencing of Nelf-A [DRSC15903] came out at: calcium signal, replicate 1 = 187; calcium signal, replicate 2 = 239.
